Experimental data reported in article PMC6824563.
No constants are given. Whether binding was seen depends on the method and setting. In cells and extracts the contact can be indirect. Some binding calls cover weakened binding; strength is not graded here. Where a sequence is shown, tags or fusion partners need not be part of it.

Columns and labels:
[1] = target: T1, HA::CEH-60::VC155 (CEH-60, C. elegans homeobox 60, PBC-class Hox cofactor) (C. elegans) (UniProt Q45EK2); experiment: split reporter; BiFC with Venus halves under the endogenous promoters (unc-62p, ceh-60p) in living C. elegans; no heat shock; signal in intestinal nuclei of adults
T1 sequence: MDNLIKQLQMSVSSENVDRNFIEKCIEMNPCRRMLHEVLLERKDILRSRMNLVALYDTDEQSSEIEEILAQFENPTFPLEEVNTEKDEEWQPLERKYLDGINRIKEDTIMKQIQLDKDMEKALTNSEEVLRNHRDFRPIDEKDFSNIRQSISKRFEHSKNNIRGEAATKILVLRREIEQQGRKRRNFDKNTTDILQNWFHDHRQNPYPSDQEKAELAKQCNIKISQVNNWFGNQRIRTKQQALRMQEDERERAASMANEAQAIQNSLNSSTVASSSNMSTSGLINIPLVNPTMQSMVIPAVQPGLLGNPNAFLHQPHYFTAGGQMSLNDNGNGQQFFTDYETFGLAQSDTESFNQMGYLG

[2] = target: T2, HA::CEH-20::VC155 (CEH-20, PBC-class Hox cofactor) (C. elegans) (UniProt P41779); experiment: co-IP; anti-HA agarose beads with lysate of the heat-shock inducible BiFC strains (at least 4 mg worm protein), 4°C overnight; lysis buffer 25 mM Tris-HCl pH 7.5, 100 mM NaCl, 1 mM EDTA, 0.5% NP-40; western blot with anti-HA and anti-MYC
T2 sequence: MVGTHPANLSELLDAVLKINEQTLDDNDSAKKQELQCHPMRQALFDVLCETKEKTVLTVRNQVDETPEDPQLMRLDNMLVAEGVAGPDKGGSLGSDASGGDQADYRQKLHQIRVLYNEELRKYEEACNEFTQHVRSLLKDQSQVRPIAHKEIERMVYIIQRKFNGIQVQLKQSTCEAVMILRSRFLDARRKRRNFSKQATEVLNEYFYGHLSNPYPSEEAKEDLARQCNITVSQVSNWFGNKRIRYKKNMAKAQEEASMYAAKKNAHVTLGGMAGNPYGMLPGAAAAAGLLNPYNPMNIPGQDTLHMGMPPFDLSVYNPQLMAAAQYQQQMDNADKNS

[3] = target: T1, HA::CEH-60::VC155 (CEH-60, C. elegans homeobox 60, PBC-class Hox cofactor) (C. elegans); experiment: as above
[4] = target: T2, HA::CEH-20::VC155 (CEH-20, PBC-class Hox cofactor) (C. elegans); experiment: split reporter; BiFC with Venus halves (VN173 on UNC-62, VC155 on the partner) under the heat-shock promoter hsp-16.41p in living day 1 adult C. elegans; heat shock 2 hours at 33°C, imaged 5-6 hours later; fluorescence quantified in 6 intestinal nuclei per animal
[5] = target: T1, HA::CEH-60::VC155 (CEH-60, C. elegans homeobox 60, PBC-class Hox cofactor) (C. elegans); experiment: as above

binding [1]: binds | binding [2]: binds | binding [3]: binds | binding [4]: binds | binding [5]: binds
B1: MYC::UNC-62::VN173 (UNC-62, uncoordinated 62, MEIS-class transcription factor) (protein, UniProt Q9N5D6 1-564)
chain: MSGDSKVWAHASADTWAVQNGISTYDLDTSSIKREKRDHNEQFNDGYGPPPGSASADPASYIADPAAFYNLYTNMGGAPTSTPMMHHEMGEAMKRDKESIYAHPLYPLLVLLFEKCELATSTPRDTSRDGSTSSDVCSSASFKDDLNEFVRHTQENADKQYYVPNPQLDQIMLQSIQMLRFHLLELEKVHELCDNFCNRYVVCLKGKMPLDIVGDERASSSQPPMSPGSMGHLGHSSSPSMAGGATPMHYPPPYEPQSVPLPENAGVMGGHPMEGSSMAYSMAGMAAAAASSSSSSNQAGDHPLANGGTLHSTAGASQTLLPIAVSSPSTCSSGGLRQDSTPLSGETPMGHANGNSMDSISEAGDEFSVCGSNDDGRDSVLSDSANGSQNGKRKVPKVFSKEAITKFRAWLFHNLTHPYPSEEQKKQLAKETGLTILQVNNWFINARRRIVQPMIDQNNRAGRSGQMNVCKNRRRNRSEQSPGPSPDSGSDSGANYSPDPSSLAASTAMPYPAEFYMQRTMPYGGFPSFTNPAMPFMNPMMGFQVAPTVDALSQQWVDLSAPHE
